Source: PMC10047546

Target: T1, claudin-like apicomplexan microneme protein (CLAMP) fused to a 3xFlag tag (P. berghei)
T1 sequence: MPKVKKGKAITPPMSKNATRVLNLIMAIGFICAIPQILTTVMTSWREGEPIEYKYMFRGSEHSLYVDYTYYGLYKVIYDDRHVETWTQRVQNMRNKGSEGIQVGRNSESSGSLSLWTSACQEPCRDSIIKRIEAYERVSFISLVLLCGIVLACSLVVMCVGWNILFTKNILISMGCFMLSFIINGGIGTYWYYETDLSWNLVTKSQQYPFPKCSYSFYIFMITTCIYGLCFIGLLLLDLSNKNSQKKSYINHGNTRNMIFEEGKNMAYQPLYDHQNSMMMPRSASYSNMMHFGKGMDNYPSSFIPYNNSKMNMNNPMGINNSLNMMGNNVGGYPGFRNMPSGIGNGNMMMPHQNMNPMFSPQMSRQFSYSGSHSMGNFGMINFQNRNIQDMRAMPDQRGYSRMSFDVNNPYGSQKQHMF
Assay: co-IP; anti-Flag IP from additional, independently prepared CLAMP-flag (untreated clampcKO) and control untagged sporozoite lysates, western blotting with anti-TRAP antibodies

B1: thrombospondin-related anonymous protein (TRAP, PBANKA_1349800) (protein, UniProt A0A509AST0 25-606)
chain: QEILDEIKYSEEVCNEQIDLHILLDGSGSIGHSNWISHVIPMLTTLVDNLNISRDEINISMTLFSTYARELVRLKRYGSTSKASLRFIIAQLQNNYSPHGTTNLTSALLNVDNLIQKKMNRPNAIQLVIILTDGIPNNLKKSTTVVNQLKKKDVNVAIIGVGAGVNNMFNRILVGCGKLGPCPYYSYGSWDQAQTMIKPFLSKVCQEVEKVALCGKWEEWSECSTTCDNGTKIRKRKVLHPNCAGEMTAPCKVRDCPPKPVAPPVIPIKVPDVPVKPVEPIEPAEPAEPAEPAEPAEPAEPAEPAEPAEPAEPAEPAEPAEPAEPAEPAEPAEPAEPAEPAKPAEPAEPAEPAEPAEPVNPDNPILPIKPEEPSGGAEPLNPEVENPFIIPDEPIEPIIAPGAVPDKPIIPEESNELPNNLPESPSDSQVEYPRPNDNGDNSNNTINSNKNIPNKHVPPTDDNPYKGQEERIPKPHRSNDEYIYYNNANNNDKLEPEIPSKDYEENKSKKQSKSNNGYKIAGGIIGGLAIIGCIGVGYNFIAGSSAAAMAGEAAPFEDVMADDEKGIVENEQFKLPEDNDWN
For B1, which binding is on record?
The binding was “binds”.

No constants are given. Whether binding was seen depends on the method and setting. In cells and extracts the contact can be indirect. Binding can be weak; no strength is given. Tags and fused reporters may be left off the sequences shown.
